Source: PubChem BioAssay AID1224826 (NIAID, 2016)

Aim: 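Regulators of Tlr4 signalling leading to Tnf-alpha expression in macrophages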 (primary screen)
Cell system: RAW264.7 G9 macrophages from mouse bearing reporters for p65 (GFP) and the Tnf promoter (mCherry)
Reagents: siRNA pool against mouse genes, 100 nM
Timing: 16 h of LPS stimulation, after 2 days of siRNA transfection
Conditions: bacterial lipopolysaccharide (Salmonella minnesota R595), 10 ng/ml
Read-out: 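Imaged Tnf reporter mCherry in nuclei, minus background, normalised per plate to the median and expressed as robust z-scores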
Reading the numbers: Tnf reporter robust z-score: higher = stronger Tnf promoter reporter signal after LPS
Call rule: 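a well counts as active at a score of -1.3 or below (Tlr4 knock-down control median) or above 3 (raised signal); controls and wells holding fewer than 50 cells are excluded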
Meaning of the calls: active = Tnf reporter clearly lowered or raised; inactive = no clear change in Tnf reporter
Here is a random part of about 17,000 reagents. Over the whole deposit, about 1,110 (6.6%) got an active call. 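Active means lowered or raised reporter signal; replicate intensities are raw and not normalised per plate.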 Not all columns of the deposit are shown.

Depletion of Tat (GeneID 234724) came out at: Tnf reporter robust z-score 1; fewer than 50 cells in well enough cells in well; inactive.
Depletion of Rhno1 (GeneID 72440) came out at: Tnf reporter robust z-score -0.93; fewer than 50 cells in well enough cells in well; inactive.
After knock-down of Drosha (GeneID 14000), the record shows fewer than 50 cells in well fewer than 50 cells per well; well left out of calls; inactive.
Itgb1bp2 (GeneID 26549) showed Tnf reporter robust z-score -0.72; fewer than 50 cells in well enough cells in well; inactive.
After knock-down of Slc39a6 (GeneID 106957), the record shows fewer than 50 cells in well fewer than 50 cells per well; well left out of calls; inactive.
With knock-down of Tafa3 (GeneID 329731), the record shows Tnf reporter robust z-score -0.11; fewer than 50 cells in well enough cells in well; inactive.
Depletion of Rgs18 (GeneID 64214) resulted in: Tnf reporter robust z-score 2.98; fewer than 50 cells in well enough cells in well; inactive.
With knock-down of Micos13 (GeneID 224904), the screen gave Tnf reporter robust z-score 3.84; fewer than 50 cells in well enough cells in well; active.
For Txnip (GeneID 56338) the deposit lists fewer than 50 cells in well fewer than 50 cells per well; well left out of calls; inactive.
Depletion of Stat1 (GeneID 20846) resulted in: Tnf reporter robust z-score -1.06; fewer than 50 cells in well enough cells in well; inactive.
Ano6 (GeneID 105722) scored Tnf reporter robust z-score 0.62; fewer than 50 cells in well enough cells in well; inactive.
Iigp1 (GeneID 60440) gave Tnf reporter robust z-score -0.79; fewer than 50 cells in well enough cells in well; inactive.
